Assay results as given in patent publication US20070219139A1 (POSCO, published 2007).
These are yes or no findings as the source states them, for the method shown. Some binding calls cover weakened binding; strength is not graded here. Where no end group is shown, it is not given here.

Experiments:
[1] = biological target: T1, formyl peptide receptor (UniProt P21462 1-350, limits assumed); assay: summary of the displacement assay on FPR-expressing RBL-2H3 cells
T1 sequence (looked up): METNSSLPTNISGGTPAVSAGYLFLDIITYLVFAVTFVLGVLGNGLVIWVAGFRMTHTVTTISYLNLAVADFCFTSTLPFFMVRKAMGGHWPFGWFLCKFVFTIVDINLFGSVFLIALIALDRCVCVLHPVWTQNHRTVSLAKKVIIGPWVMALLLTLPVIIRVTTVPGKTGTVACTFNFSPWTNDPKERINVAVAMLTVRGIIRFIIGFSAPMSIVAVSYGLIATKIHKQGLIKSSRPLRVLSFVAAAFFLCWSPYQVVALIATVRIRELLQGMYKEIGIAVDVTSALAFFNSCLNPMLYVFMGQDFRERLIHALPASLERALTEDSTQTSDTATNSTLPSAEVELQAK

[2] = biological target: T1, formyl peptide receptor; assay: displacement of ^125I-WKYMVm on FPR-expressing RBL-2H3 cells (FIG. 2A)
[3] = biological target: T2, formyl peptide receptor-like 1 (UniProt P25090 1-351, limits assumed); assay: displacement of ^125I-WKYMVm on FPRL1-expressing RBL-2H3 cells (FIG. 2B)
T2 sequence (looked up): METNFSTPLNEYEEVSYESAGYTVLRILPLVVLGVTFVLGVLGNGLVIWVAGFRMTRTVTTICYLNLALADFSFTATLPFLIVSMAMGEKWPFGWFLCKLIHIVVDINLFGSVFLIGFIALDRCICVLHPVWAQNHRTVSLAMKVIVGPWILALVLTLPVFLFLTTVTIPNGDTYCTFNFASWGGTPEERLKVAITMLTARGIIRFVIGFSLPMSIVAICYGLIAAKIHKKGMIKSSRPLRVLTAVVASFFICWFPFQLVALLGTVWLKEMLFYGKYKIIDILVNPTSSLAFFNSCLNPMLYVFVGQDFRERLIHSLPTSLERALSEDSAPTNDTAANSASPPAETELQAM

Measured: binding

WKYMVE (C-terminal amide (-NH2)) [Trp-Lys-Tyr-Met-Val-Glu-NH2]
binds: all assays above

WKYMVR (C-terminal amide (-NH2)) [Trp-Lys-Tyr-Met-Val-Arg-NH2]
binds: all assays above
